# Reference: PubChem BioAssay AID504467 (National Center for Advancing Translational Sciences (NCATS), 2011)
# The campaign covered roughly 330,000 compounds. About 7,700 (2.3%) were called active. The inconclusive results got no clear call from the source; some entries with a clear call stand among them for comparison. Calls follow the shape of the dose curve; as a rule, active = well fitted inhibition curve with a large enough effect; inconclusive = small, poorly fitted or top-dose-only effect, or effect the other way; inactive = flat fitted curve, though single readings scatter. A potency beside an inconclusive call is a rough fit, not a confirmed value.
# Assay: qHTS screen for small molecules that inhibit ELG1-dependent DNA repair in human embryonic kidney (HEK293T) cells expressing luciferase-tagged ELG1; also: nearly all actives have a fitted effect of over 55% in size
# Conditions: HEK293T ELG1-luciferase reporter, luminescence, 16 h, DNA damage induced by 5-fluorouridine; series mostly up to 46.1 µM
# In short: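 5-Fluorouridine DNA damage + compound/DMSO, 2,000 cells/well, 16 h, 37 °C/5% CO2. ONE-Glo, 30 min RT, luminescence. Readout = decrease in reporter signal.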
# Potency is read from the fitted curve at half-maximal effect.
row,Compound,Potency
1,COc1ccc(-c2c(C)nn3c(N4CCC(C(=O)N5CCCCC5)CC4)cc(C)nc23)cc1OC,"inconclusive: 5.8 µM [inhibitor, full curve]"
2,COc1ccc(OC)c2nc3c(cc12)CCC3,inactive
3,O=C(Nc1ccccn1)c1onc2c1CCCC2,"inconclusive: 0.58 µM [activator, full curve]"
4,O=C(NCCc1ccc(Cl)cc1)C1CCN(C(=O)c2sccc2-n2cccc2)CC1,"inconclusive: 18.4 µM [inhibitor, single point]"
5,O=C(NC(Cc1ccccc1)C(=O)O)/C(=C/c1ccc([N+](=O)[O-])cc1)NC(=O)c1ccccc1 (centres undefined),inactive
6,CCn1nc(NS(=O)(=O)c2ccc(NC(C)=O)cc2)c2cc3cc(C)ccc3nc21,"inconclusive: 18.3 µM [activator, single point]"
7,CCOC(=O)Cn1c(=N)n(CCOc2cccc(C)c2)c2ccccc21,"inconclusive: 4.61 µM [activator, single point]"
8,O=C(COC(=O)c1ccc(O)cc1)NCC1COc2ccccc2O1 (centres undefined),inactive
9,O=C(Nc1ccc(-c2nc3ccccc3[nH]2)cc1)c1ccc2c(c1)OCO2,"inconclusive: 14.1 µM [activator, partial curve, poor fit]"
10,O=C(Nc1cccc(-c2cn3ccccc3n2)c1)c1ccccc1,"inconclusive: 29.1 µM [inhibitor, single point]"
11,Cc1ccc2c(c1)Oc1ccc(NC(=O)CCl)cc1C(=O)N2,"inconclusive: 29.1 µM [activator, single point]"
12,CC(C)=C1C2CCC1C1C(=O)N(CCc3ccccc3)C(=O)C21 (centres undefined),inactive
13,COc1cc(/C=C2/NC(=O)N(Cc3ccccc3F)C2=O)ccc1Oc1ccc([N+](=O)[O-])cn1,"inconclusive: 4.11 µM [inhibitor, full curve, poor fit]"
14,Nc1c(C(=O)Nc2ccc3c(c2)OCCO3)nnn1Cc1ccc(Cl)cc1,"inconclusive: 5.17 µM [activator, partial curve]"
15,NCCc1nnc(SCc2c(Cl)cccc2Cl)o1,"inconclusive: 18.3 µM [activator, partial curve, poor fit]"
16,COc1cc(Nc2c3c(nc4ccccc24)CCCC3)cc(OC)c1OC,"inconclusive: 18.3 µM [activator, partial curve]"
17,Cc1cc(Cl)cc(Cl)c1CNc1c([N+](=O)[O-])c(=O)oc2ccccc12,inactive
18,CCOC(=O)c1cnn(-c2nc(C)cc(C)n2)c1N,"inconclusive: 14.6 µM [activator, single point]"
19,Cc1nn(CCC(=O)NNC(=S)Nc2ccccc2)c(C)c1Br,"inconclusive: 29.1 µM [inhibitor, partial curve, poor fit]"
20,NC(N)=NN=C1CCCCCCCCCCC1,"inconclusive: 16.4 µM [inhibitor, partial curve, poor fit]"
21,COc1cccc(-c2ccc3ncnc(NCc4cccs4)c3c2)c1,active: 14.6 µM
22,COc1ccc(NC(=S)N(CCN2CCOCC2)Cc2cc3cc4c(cc3[nH]c2=O)OCO4)cc1,"inconclusive: 18.3 µM [inhibitor, partial curve]"
23,Cc1ccc(-c2nnc(CSc3nnc(COc4cccc5ccccc45)n3-c3ccccc3)o2)cc1,"inconclusive: 23.1 µM [inhibitor, single point]"

row,Compound,Potency
1,CCN1CCN(c2cc(C)c3cc(NC(=O)c4ccc5c(c4)OCO5)ccc3n2)CC1,"inconclusive: 16.4 µM [inhibitor, partial curve]"
2,c1ccc(-c2csc3nnc(SCc4ccc5c(c4)OCCO5)n23)cc1,"inconclusive: 20.6 µM [inhibitor, single point]"
3,Cc1ccc(Cl)cc1N1CCN(Cc2cc(=O)n3ccsc3n2)CC1,"inconclusive: 29.1 µM [inhibitor, single point]"
4,COc1ccc(CNc2cccc(F)c2)cc1Br,"inconclusive: 18.4 µM [activator, single point]"
5,NS(=O)(=O)c1ccc2nc(NC(=O)C3=COCCO3)sc2c1,"inconclusive: 8.2 µM [activator, partial curve]"
6,Cn1c(=O)c2c(nc(CN3CCC(C(N)=O)CC3)n2Cc2c(F)cccc2Cl)n(C)c1=O,inactive
7,CC(=O)c1cccc(OCC(=O)N2CCN(c3ccc(C(F)(F)F)cn3)CC2)c1,"inconclusive: 23.1 µM [inhibitor, single point]"
8,O=C(/C=C/c1cccc([N+](=O)[O-])c1)NCCSCc1ccc(Cl)cc1Cl,"inconclusive: 29.1 µM [inhibitor, single point]"
9,COc1ccc(N2CC(C(=O)NCc3nnnn3-c3ccc(C)c(C)c3)CC2=O)cc1 (centres undefined),inactive
10,O=C(O)Cc1ccc(C(=O)c2cccs2)s1,"inconclusive: 16.4 µM [inhibitor, partial curve, poor fit]"
11,COc1ccc(CN2CC(=O)N(c3ccc(C)cc3C)C2=S)cc1OC,"inconclusive: 18.3 µM [inhibitor, single point]"
12,NC(=O)c1nsc(C(=O)N(CC(=O)NCc2ccccc2)c2cccc(F)c2)c1N,inactive
13,Cc1cc(C)c2nc(C)cc(Nc3ccc(C(=O)N4CCOCC4)cc3)c2c1,inactive
14,COc1cc2ccccc2cc1C(=O)NC1CCC(C)CC1 (centres undefined),"inconclusive: 8.2 µM [activator, partial curve]"
15,O=Nc1c(-c2ccccc2)cc2ccccn12,"inconclusive: 16.4 µM [activator, single point]"
16,COc1cccc(C(=O)Oc2ccc3ccc(=O)oc3c2)c1,inactive
17,COc1ccc2nc(NC(=O)C(NS(=O)(=O)c3cccc4nsnc34)C(C)C)sc2c1 (centres undefined),inactive
18,Cc1ccc(NC(=O)CCCSc2ccccc2)cc1S(=O)(=O)N1CCOCC1,"inconclusive: 18.3 µM [inhibitor, single point]"
19,COc1ccc(C(=O)Oc2ccc(/C=N/O)cc2)cc1,"inconclusive: 20.6 µM [activator, partial curve, poor fit]"
20,Cc1ccc2nc(N(CCN(C)C)C(=O)C3=COCCO3)sc2c1,"inconclusive: 13 µM [activator, partial curve]"
21,O=C(N/N=C/C=C/c1ccccc1[N+](=O)[O-])c1ccncc1,inactive
22,COc1ccc(S(=O)(=O)N(C)C[C@@H]2Oc3c(NS(=O)(=O)c4cn(C)cn4)cccc3C(=O)N([C@@H](C)CO)C[C@@H]2C)cc1,"inconclusive: 6.51 µM [activator, partial curve, poor fit]"
23,COc1ccccc1C(=O)C1CCCN(C(=O)CCn2cnnn2)C1 (centres undefined),"inconclusive: 32.6 µM [activator, partial curve, poor fit]"

# Another view of 3 compounds above.
row | Compound | Potency
13 | Cc1cc(C)c2nc(C)cc(Nc3ccc(C(=O)N4CCOCC4)cc3)c2c1 | inactive
22 | COc1ccc(S(=O)(=O)N(C)C[C@@H]2Oc3c(NS(=O)(=O)c4cn(C)cn4)cccc3C(=O)N([C@@H](C)CO)C[C@@H]2C)cc1 | inconclusive: 6.51 µM [activator, partial curve, poor fit]
23 | COc1ccccc1C(=O)C1CCCN(C(=O)CCn2cnnn2)C1 (centres undefined) | inconclusive: 32.6 µM [activator, partial curve, poor fit]

# (listing goes on)

row,Compound,Potency
1,CCC(=O)Oc1ccc(C(=O)Nc2ccc([N+](=O)[O-])cc2)cc1,"inconclusive: 2.91 µM [activator, full curve, poor fit]"
2,COc1cc2c(cc1OC)[C@H](C)N(C(=O)NCc1ccccc1)CC2,inactive
3,COc1cccc(C2C(C#N)=C(N)OC(C(C)(C)C)=C2C#N)c1 (centres undefined),inactive
4,CCOc1cc(C(c2c(C)[nH][nH]c2=O)c2c(C)[nH][nH]c2=O)ccc1O,inactive
5,CC(=O)Nc1ccc(C(=O)OCC(=O)Nc2c(C)n(C)n(-c3ccccc3)c2=O)cc1,"inconclusive: 14.6 µM [activator, partial curve, poor fit]"
6,CCN(c1ccccc1)S(=O)(=O)c1ccc(Cl)c(NC(=O)Nc2ccc(Cl)cc2C#N)c1,inactive
7,CCn1cc(SCC(=O)N2CCOCC2)c2ccccc21,"inconclusive: 23.1 µM [activator, partial curve]"
8,COc1cc(CC(=O)NNC(=O)c2cc(C)oc2C)cc(OC)c1OC,inactive
9,Cc1occc1C(=O)NC1CCCCCCC1,"inconclusive: 20.6 µM [activator, single point]"
10,CS(=O)(=O)Nc1cccc(C2=NN(C(=O)c3ccccc3)C(c3cccs3)C2)c1 (centres undefined),"inconclusive: 18.3 µM [inhibitor, single point]"
11,O=C(CCc1ccccc1)NCc1ccc2c(c1)OCO2,inactive
12,Cc1ccc(CNC(=O)C2CSC3(C)CCC(=O)N23)cc1 (centres undefined),inactive
13,CCOc1ccc(NC(=O)CN2C(=O)C(C)SC(C)C2=O)cc1 (centres undefined),"inconclusive: 29.1 µM [activator, single point]"
14,C=CCNCc1cccn1-c1sc2c(c1C#N)CCCC2,"inconclusive: 20.6 µM [inhibitor, partial curve, poor fit]"
15,Cc1ccc(NC(=O)CSCC(=O)N2CCN(c3cccc(C(F)(F)F)c3)CC2)cc1,inactive
16,COCCN(C(=O)COC(=O)c1ccc(Cl)s1)c1c(N)n(Cc2ccccc2)c(=O)[nH]c1=O,"inconclusive: 14.6 µM [activator, partial curve, poor fit]"
17,O=C(NC(=S)NC1CCCCCC1)c1cncc(Br)c1,"inconclusive: 16.4 µM [activator, partial curve]"
18,Cc1cc(C)n(C(=O)Cn2nc([N+](=O)[O-])cc2C)n1,inactive
19,Cc1ccc2c(COC(=O)C34CC5CC(CC(C5)C3)C4)cc(=O)oc2c1,"inconclusive: 9.2 µM [activator, partial curve]"
20,CC(C)(C)n1ncc2c(=O)n(CC(=O)Nc3ccccc3)cnc21,"inconclusive: 20.6 µM [activator, single point]"
21,O=C(CN1CCCC1)NCC12CC3CC(CC(C3)C1)C2,"inconclusive: 35.5 µM [inhibitor, single point]"
22,CN(C)/C=C/C(=O)c1ccc(F)cc1,inactive
23,O=c1[nH]c2ccccc2nc1/C=C/c1ccccc1,"inconclusive: 4.61 µM [activator, partial curve]"
